# Data from PMC6796897.
# Sequences of proteins named here, by UniProt entry; tags and fusion partners are left off.
# UniProt P58801: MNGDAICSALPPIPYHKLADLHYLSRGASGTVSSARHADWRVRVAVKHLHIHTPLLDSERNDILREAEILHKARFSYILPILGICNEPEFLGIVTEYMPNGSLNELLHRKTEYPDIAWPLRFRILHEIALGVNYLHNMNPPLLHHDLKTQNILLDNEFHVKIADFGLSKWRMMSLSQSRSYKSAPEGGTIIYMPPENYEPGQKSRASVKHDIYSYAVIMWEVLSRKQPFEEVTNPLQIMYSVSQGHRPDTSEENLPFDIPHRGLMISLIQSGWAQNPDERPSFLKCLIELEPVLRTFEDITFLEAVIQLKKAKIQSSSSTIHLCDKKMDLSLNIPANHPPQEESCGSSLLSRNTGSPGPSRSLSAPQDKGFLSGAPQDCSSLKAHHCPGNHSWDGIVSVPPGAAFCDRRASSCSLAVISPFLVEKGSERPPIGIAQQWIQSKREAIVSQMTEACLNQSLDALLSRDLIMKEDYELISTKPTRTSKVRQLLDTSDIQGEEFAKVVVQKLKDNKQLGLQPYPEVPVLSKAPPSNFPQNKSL
# UniProt P62821: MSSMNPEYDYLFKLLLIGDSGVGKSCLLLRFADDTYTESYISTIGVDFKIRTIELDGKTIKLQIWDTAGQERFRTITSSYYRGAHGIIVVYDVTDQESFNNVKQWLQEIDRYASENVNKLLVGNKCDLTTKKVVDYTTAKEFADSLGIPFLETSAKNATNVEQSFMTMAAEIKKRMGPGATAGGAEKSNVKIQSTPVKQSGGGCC
# These are yes or no findings as the source states them, for the method shown. In cells and extracts the contact can be indirect. Some entries that bind do so weakly or less than the wild type.
# Legend:
# [1] = biological target: Rip2 (murine, HA-tagged) (mouse) (UniProt P58801); experiment: co-IP; tagged proteins overexpressed in HEK293T cells; lysed in IP buffer (50 mM Tris, 150 mM NaCl, 2 mM EDTA, 1% NP-40); IP with anti-myc or anti-HA, 4 °C; immunoblot
# [2] = biological target: Rab1a (murine, myc-tagged) (mouse) (UniProt P62821); experiment: as above
Substance,binding [1],binding [2]
"Rab1a (murine, myc-tagged) (from UniProt P62821 1-205)",binds,–
"Rip2 (murine, HA-tagged) (from UniProt P58801 1-539)",–,binds
